This is an account of results in paper doi:10.1101/2020.07.08.192955.

Chains of the proteins cited; added tags and fusions are not shown. Residues count along the entry.
UniProt P11021, residues 19-654: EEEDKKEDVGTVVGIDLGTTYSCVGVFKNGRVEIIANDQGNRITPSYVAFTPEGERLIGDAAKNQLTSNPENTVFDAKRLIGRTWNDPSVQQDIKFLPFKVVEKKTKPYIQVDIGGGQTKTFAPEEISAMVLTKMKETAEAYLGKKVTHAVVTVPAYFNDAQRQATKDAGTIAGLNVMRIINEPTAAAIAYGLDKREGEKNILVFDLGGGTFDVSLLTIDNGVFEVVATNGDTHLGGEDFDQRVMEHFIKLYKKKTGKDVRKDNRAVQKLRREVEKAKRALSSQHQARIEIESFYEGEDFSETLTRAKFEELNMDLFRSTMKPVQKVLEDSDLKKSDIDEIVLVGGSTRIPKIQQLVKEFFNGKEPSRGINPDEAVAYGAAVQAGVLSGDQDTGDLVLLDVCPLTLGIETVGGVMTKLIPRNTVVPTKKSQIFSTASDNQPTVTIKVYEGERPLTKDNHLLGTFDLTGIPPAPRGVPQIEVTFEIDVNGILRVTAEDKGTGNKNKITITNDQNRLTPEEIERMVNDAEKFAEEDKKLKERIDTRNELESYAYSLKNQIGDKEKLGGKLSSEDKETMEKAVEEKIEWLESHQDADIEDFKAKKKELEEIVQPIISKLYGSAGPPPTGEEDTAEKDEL

Test in all cases: co-IP
For one assay, the target named is T1, WT EGFP-FLAG-CD59 (UniProt P13987).
T1 sequence (chain, N-glycan (site N43); GPI-anchor): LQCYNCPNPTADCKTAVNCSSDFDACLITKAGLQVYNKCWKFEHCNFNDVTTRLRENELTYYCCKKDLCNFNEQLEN

The target of assay [1] is T2, misfolded CD59 lacking an N-glycan (EGFP-FLAG-CD59 (C94S, N43Q)) (UniProt P13987).
T2 sequence (chain, GPI-anchor; no N-glycan): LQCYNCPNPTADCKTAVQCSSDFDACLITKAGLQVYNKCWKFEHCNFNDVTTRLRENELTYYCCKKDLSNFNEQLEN

The target of assay [2] is T3, soluble misfolded CD59 (EGFP-FLAG-CD59 (C94S, G103*)) (UniProt P13987).
T3 sequence (chain, N-glycan (site N43); no GPI): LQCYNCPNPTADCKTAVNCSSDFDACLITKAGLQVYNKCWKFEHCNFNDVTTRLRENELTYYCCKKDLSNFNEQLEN

Assay [3] concerns the target T4, misfolded CD59 (EGFP-FLAG-CD59 (C94S)) (UniProt P13987).
T4 sequence (chain, N-glycan (site N43); GPI-anchor): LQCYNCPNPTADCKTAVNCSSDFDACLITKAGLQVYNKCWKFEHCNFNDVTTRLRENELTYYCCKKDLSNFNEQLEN

For assay [4], the target named is T5, soluble misfolded CD59 (EGFP-FLAG-CD59 (C94S, G103*)), P13987.
T5 chain: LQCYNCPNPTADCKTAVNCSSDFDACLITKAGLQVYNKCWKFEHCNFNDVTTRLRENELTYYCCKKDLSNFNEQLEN
The note with it: remark: other sources report otherwise.

The target of assay [5] is T6, misfolded CD59 (EGFP-FLAG-CD59 (C94S)), P13987.
T6 chain: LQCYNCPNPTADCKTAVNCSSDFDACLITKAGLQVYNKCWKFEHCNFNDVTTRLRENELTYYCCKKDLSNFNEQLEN
The note with it: remark: other sources report otherwise.

These are yes or no findings as the source states them, for the method shown. Binding seen in cells or lysates may run through a third protein. Some entries that bind do so weakly or less than the wild type. Tags and fused reporters may be left off the sequences shown.

As for BiP (from UniProt P11021 19-654), the binding result (in the assay with WT EGFP-FLAG-CD59; in assay [1]; in assay [2]; in assay [3]) was “no binding” throughout.

With “calreticulin (from UniProt P27797 18-417)”, the binding result (in the assay with WT EGFP-FLAG-CD59; in assay [1]) was “no binding” throughout.

B1: calnexin (protein, UniProt P27824 21-592)
chain: HDGHDDDVIDIEDDLDDVIEEVEDSKPDTTAPPSSPKVTYKAPVPTGEVYFADSFDRGTLSGWILSKAKKDDTDDEIAKYDGKWEVEEMKESKLPGDKGLVLMSRAKHHAISAKLNKPFLFDTKPLIVQYEVNFQNGIECGGAYVKLLSKTPELNLDQFHDKTPYTIMFGPDKCGEDYKLHFIFRHKNPKTGIYEEKHAKRPDADLKTYFTDKKTHLYTLILNPDNSFEILVDQSVVNSGNLLNDMTPPVNPSREIEDPEDRKPEDWDERPKIPDPEAVKPDDWDEDAPAKIPDEEATKPEGWLDDEPEYVPDPDAEKPEDWDEDMDGEWEAPQIANPRCESAPGCGVWQRPVIDNPNYKGKWKPPMIDNPSYQGIWKPRKIPNPDFFEDLEPFRMTPFSAIGLELWSMTSDIFFDNFIICADRRIVDDWANDGWGLKKAADGAAEPGVVGQMIEAAEERPWLWVVYILTVALPVFLVILFCCSGKKQTSGMEYKKTDAPQPDVKEEEEEKEEEKDKGDEEEEGEEKLEEKQKSDAEEDGGTVSQEEEDRKPKAEEDEILNRSPRNRKPRRE
B1: the binding entry with WT EGFP-FLAG-CD59 is listed as “binds”; in assay [1], “no binding”.

B2: calreticulin, P27797 18-417 (protein)
chain: EPAVYFKEQFLDGDGWTSRWIESKHKSDFGKFVLSSGKFYGDEEKDKGLQTSQDARFYALSASFEPFSNKGQTLVVQFTVKHEQNIDCGGGYVKLFPNSLDQTDMHGDSEYNIMFGPDICGPGTKKVHVIFNYKGKNVLINKDIRCKDDEFTHLYTLIVRPDNTYEVKIDNSQVESGSLEDDWDFLPPKKIKDPDASKPEDWDERAKIDDPTDSKPEDWDKPEHIPDPDAKKPEDWDEEMDGEWEPPVIQNPEYKGEWKPRQIDNPDYKGTWIHPEIDNPEYSPDPSIYAYDNFGVLGLDLWQVKSGTIFDNFLITNDEAYAEEFGNETWGVTKAAEKQMKDKQDEEQRLKEEEEDKKRKEEEEAEDKEDDEDKDEDEEDEEDKEEDEEEDVPGQAKDEL
modifications: here or on the partner: N-glycan (site N43); no GPI
Regarding B2, the binding entry in assay [4] and in assay [5] was “no binding” throughout.
